Source: the M2OR odorant receptor database
The list shows a part of the results. The calls were merged from several studies; some rest on single wells.

Experiments:
Settings in all cases: stereoisomer not certain
O52I2 [1] = system: T1, O52I2
T1 sequence (whole entry): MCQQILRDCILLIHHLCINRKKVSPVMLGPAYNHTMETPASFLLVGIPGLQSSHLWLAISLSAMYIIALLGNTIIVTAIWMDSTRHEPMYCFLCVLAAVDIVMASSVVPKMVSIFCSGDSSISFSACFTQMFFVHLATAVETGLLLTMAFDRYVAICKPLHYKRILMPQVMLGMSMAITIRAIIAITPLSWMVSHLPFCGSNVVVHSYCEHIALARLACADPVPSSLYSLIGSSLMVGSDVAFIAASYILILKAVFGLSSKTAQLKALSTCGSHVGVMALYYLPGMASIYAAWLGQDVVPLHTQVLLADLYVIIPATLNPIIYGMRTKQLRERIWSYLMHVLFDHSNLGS
Method in brief: (§1)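 Values were gathered from published papers (main text and supplementary material), with extra details requested from the original authors when needed, and checked for typos and inconsistencies. Each receptor–molecule pair is called responsive (active) if the original authors judged the measured signal statistically different from baseline, and non-responsive (inactive) otherwise. Assay methods varied by source, often transient mammalian cell-line luciferase assays. Recorded details include cell line, G-protein, co-transfected protein and tags.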

O52I2 [2] = system: T2, O52I2; remark: listed apart in the source
T2 sequence (whole entry): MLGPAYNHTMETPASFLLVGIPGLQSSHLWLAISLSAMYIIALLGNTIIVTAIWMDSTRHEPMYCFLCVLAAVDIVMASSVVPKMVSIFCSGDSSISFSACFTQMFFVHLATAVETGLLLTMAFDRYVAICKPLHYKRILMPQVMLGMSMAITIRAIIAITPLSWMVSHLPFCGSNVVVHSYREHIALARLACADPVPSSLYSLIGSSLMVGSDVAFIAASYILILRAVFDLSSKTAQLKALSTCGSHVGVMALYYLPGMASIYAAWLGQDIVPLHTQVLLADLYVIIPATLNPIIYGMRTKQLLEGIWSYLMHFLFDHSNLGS
Method in brief: as §1

O52J3 = system: T3, O52J3
T3 sequence (whole entry): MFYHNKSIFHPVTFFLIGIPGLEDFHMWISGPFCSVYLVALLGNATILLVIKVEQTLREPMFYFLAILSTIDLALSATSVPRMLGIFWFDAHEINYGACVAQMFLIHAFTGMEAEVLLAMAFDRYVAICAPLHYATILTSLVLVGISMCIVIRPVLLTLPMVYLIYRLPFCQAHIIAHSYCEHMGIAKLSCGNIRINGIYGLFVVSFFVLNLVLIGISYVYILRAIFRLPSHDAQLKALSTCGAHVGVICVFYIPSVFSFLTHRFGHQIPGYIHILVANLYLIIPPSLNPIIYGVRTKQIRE
Method in brief: as §1

O52L1 = system: T4, O52L1
T4 sequence (whole entry): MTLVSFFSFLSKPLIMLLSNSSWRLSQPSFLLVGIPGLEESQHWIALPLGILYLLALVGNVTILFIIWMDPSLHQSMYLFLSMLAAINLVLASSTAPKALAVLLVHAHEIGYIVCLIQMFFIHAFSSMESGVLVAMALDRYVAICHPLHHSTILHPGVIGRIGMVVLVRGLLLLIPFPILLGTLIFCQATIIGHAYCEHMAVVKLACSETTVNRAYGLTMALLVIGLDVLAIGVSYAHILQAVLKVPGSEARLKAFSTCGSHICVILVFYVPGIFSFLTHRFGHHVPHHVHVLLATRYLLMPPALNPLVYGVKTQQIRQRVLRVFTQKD
Method in brief: as §1

O52L2 = system: T5, O52L2
T5 sequence (whole entry): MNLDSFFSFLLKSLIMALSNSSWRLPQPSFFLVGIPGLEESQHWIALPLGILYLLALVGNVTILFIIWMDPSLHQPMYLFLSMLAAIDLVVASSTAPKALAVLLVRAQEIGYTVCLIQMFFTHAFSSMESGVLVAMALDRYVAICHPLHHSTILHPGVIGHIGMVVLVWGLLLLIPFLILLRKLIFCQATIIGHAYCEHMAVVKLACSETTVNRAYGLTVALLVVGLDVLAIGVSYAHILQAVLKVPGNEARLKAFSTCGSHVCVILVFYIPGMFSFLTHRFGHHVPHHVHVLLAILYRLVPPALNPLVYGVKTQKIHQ
Method in brief: as §1

O52M1 = system: T6, O52M1
T6 sequence (whole entry): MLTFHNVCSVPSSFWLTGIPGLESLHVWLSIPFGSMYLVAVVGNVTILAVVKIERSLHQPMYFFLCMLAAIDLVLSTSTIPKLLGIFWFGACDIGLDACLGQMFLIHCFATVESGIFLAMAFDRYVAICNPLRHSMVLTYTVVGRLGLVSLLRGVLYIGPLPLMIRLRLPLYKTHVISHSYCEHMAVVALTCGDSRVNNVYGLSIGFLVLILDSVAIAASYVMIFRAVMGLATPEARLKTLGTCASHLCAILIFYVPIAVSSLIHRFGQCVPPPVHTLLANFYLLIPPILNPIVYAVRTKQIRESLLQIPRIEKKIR
Method in brief: as §1

O52N1 = system: T7, O52N1
T7 sequence (whole entry): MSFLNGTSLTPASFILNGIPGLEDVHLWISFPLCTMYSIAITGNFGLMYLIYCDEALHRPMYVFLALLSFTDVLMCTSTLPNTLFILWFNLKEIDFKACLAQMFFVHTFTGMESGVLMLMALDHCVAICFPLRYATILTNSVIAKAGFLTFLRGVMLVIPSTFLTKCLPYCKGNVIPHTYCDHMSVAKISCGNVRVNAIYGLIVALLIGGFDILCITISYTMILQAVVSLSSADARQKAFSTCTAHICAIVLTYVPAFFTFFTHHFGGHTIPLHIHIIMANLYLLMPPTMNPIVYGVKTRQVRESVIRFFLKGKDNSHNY
Method in brief: as §1

O52N2 = system: T8, O52N2
T8 sequence (whole entry): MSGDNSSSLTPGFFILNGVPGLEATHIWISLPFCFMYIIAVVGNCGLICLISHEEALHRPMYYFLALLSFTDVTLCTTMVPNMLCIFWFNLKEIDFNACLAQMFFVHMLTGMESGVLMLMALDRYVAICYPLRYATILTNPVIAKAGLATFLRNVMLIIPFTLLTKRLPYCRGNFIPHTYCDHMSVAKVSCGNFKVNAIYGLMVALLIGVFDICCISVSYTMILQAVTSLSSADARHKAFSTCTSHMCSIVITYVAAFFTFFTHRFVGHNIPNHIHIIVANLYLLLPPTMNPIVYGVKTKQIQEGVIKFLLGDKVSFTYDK
Method in brief: as §1

O52N4 = system: T9, O52N4
T9 sequence (whole entry): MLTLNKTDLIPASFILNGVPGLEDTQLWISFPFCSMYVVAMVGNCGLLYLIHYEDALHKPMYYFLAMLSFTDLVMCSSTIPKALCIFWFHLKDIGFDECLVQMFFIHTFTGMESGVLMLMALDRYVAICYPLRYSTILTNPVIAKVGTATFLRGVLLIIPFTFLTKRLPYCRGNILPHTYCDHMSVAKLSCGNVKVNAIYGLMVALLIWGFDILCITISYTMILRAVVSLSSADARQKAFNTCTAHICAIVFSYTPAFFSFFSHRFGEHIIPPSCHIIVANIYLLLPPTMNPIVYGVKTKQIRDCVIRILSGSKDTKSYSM
Method in brief: as §1

O52P1 = system: T10, O52P1
T10 sequence (whole entry): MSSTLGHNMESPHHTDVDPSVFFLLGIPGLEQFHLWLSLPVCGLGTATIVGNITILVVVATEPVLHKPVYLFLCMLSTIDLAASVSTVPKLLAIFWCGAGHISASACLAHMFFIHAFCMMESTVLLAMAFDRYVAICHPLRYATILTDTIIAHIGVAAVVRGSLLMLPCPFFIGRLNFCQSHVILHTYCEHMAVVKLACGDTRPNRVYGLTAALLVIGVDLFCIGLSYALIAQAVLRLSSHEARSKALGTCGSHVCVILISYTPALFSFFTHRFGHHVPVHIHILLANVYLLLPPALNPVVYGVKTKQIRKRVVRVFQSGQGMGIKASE
Method in brief: as §1

Measured: odorant receptor agonist call

CCCCOC(C)=O
inactive: O52I2 [1] | O52I2 [2] | O52J3 | O52L1 | O52L2 | O52M1 | O52N1 | O52N2 | O52N4 | O52P1
